Data as given in PubChem BioAssay AID602196 (INSERM, 2012).
The whole screen tested about 23,000 reagents; this is an unselected part. In the full data, 455 (2%) got an active call. 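Active includes both protection and sensitisation; some change values fall well beyond the stated -50 to +50 range.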 Further read-outs or replicates are left out here. Not given: the amount of reagent.

- Screen: 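Genes whose knock-down alters cisplatin killing of lung cancer cells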
- Cell system: human A549 lung cancer cells
- Reagents: siRNA pair against human genes
- Timing: 48 h transfection before cisplatin; time from cisplatin to read-out not stated
- Challenge: cisplatin at a dose killing half of control-siRNA cells; exact dose and duration not given
- Detection: 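Cisplatin cell death as a shift from the 50% death seen with control siRNA; siRNAs toxic or growth-blocking alone scored 0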
- Direction: two-siRNA summed score (-2 to +2): higher = both siRNAs protect from cisplatin killing; -2 means both sensitise; mean protection from cisplatin (shift in death): higher = protection from cisplatin killing
- Hit rule: 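Each siRNA scores 0 if harmful alone by LDH or WST-1, otherwise +1 if it reduces and -1 if it increases cisplatin killing; a gene is active when both siRNAs agree (sum +2 or -2)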
- Calls: active = both siRNAs shift cisplatin killing the same way; inactive = no consistent shift, or siRNA harmful alone

PON2 (paraoxonase 2) | two-siRNA summed score (-2 to +2) = -1; mean protection from cisplatin (shift in death) (%) = -28.4; activity call = inactive
BNIP3L (BCL2 interacting protein 3 like) | two-siRNA summed score (-2 to +2) = 0; mean protection from cisplatin (shift in death) (%) = -0.3; activity call = inactive
LAMB4 (laminin subunit beta 4) | two-siRNA summed score (-2 to +2) = 2; mean protection from cisplatin (shift in death) (%) = 20.3; activity call = active
NFATC2 (nuclear factor of activated T cells 2) | two-siRNA summed score (-2 to +2) = 0; mean protection from cisplatin (shift in death) (%) = 5.8; activity call = inactive
AK8 (adenylate kinase 8) | two-siRNA summed score (-2 to +2) = 0; mean protection from cisplatin (shift in death) (%) = 6.1; activity call = inactive
SNRPA (small nuclear ribonucleoprotein polypeptide A) | two-siRNA summed score (-2 to +2) = 0; mean protection from cisplatin (shift in death) (%) = -6; activity call = inactive
PLA2G4C (phospholipase A2 group IVC) | two-siRNA summed score (-2 to +2) = 0; mean protection from cisplatin (shift in death) (%) = 4.9; activity call = inactive
LOC442602 | two-siRNA summed score (-2 to +2) = 0; mean protection from cisplatin (shift in death) (%) = 0.8; activity call = inactive
LOC400600 | two-siRNA summed score (-2 to +2) = 0; mean protection from cisplatin (shift in death) (%) = 0.4; activity call = inactive
OAS3 (2'-5'-oligoadenylate synthetase 3) | two-siRNA summed score (-2 to +2) = -1; mean protection from cisplatin (shift in death) (%) = -10.1; activity call = inactive
ARTN (artemin) | two-siRNA summed score (-2 to +2) = 0; mean protection from cisplatin (shift in death) (%) = -6.2; activity call = inactive
SPRNP1 (shadow of prion protein pseudogene 1) | two-siRNA summed score (-2 to +2) = 0; mean protection from cisplatin (shift in death) (%) = -0.1; activity call = inactive

2 consecutive records already listed, for reference:
ARTN (artemin) | two-siRNA summed score (-2 to +2) = 0; mean protection from cisplatin (shift in death) (%) = -6.2; activity call = inactive
SPRNP1 (shadow of prion protein pseudogene 1) | two-siRNA summed score (-2 to +2) = 0; mean protection from cisplatin (shift in death) (%) = -0.1; activity call = inactive
